This assay has as its target Flag-hTTLL12 (human tubulin tyrosine ligase like 12, Flag-tagged) (human) (UniProt Q14166). Kind of assay: co-IP; nuclear extracts of hTTLL12 clones (Nuclear Complex Co-IP Kit, Active Motif); IP of M2-Flagged hTTLL12, Western blot; control IP in the presence of 500 µg M2 (Flag) peptide. In general terms: Immunoblotting shows a protein as a band on a membrane.

By UniProt entry, the sequences of proteins in these tests, tags left out.
UniProt Q14166: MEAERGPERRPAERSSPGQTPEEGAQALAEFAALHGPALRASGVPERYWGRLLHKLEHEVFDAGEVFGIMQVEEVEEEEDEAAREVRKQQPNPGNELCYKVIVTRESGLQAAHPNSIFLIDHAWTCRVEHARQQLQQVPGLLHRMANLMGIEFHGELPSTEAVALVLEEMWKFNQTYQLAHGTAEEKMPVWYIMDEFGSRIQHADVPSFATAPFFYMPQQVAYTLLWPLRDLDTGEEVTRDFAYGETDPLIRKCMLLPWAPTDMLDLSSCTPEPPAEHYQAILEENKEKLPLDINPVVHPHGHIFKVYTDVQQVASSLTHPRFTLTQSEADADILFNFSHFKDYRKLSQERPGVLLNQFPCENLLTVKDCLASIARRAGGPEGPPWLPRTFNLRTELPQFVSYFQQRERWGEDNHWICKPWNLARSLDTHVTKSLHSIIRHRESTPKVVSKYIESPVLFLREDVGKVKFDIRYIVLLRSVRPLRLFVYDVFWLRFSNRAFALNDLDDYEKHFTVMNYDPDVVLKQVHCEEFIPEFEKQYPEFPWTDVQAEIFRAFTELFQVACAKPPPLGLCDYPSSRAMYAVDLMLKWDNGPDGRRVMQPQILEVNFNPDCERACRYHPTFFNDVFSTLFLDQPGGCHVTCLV
UniProt Q13185: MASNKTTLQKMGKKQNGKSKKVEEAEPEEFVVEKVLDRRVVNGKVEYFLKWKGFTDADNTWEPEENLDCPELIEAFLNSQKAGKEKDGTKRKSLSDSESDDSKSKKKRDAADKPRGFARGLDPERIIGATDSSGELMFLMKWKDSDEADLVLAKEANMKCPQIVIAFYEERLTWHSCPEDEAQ

No constants are given. Whether binding was seen depends on the method and setting. Binding seen in cells or lysates may run through a third protein. Some binding calls cover weakened binding; strength is not graded here.

With HP1γ (from UniProt Q13185 1-183), the binding result is on record as “binds”.

The values are drawn from publication PMC3520985.
